Results as given in publication PMC9839712.
Results are given in words; binding and its absence hold for the method and conditions named. Binding seen in cells or lysates may run through a third protein. Some entries that bind do so weakly or less than the wild type. Tags and fused reporters may be left off the sequences shown.

Molecular target: T1, FLAG-LRIG3 (UniProt Q6UXM1)
T1 sequence: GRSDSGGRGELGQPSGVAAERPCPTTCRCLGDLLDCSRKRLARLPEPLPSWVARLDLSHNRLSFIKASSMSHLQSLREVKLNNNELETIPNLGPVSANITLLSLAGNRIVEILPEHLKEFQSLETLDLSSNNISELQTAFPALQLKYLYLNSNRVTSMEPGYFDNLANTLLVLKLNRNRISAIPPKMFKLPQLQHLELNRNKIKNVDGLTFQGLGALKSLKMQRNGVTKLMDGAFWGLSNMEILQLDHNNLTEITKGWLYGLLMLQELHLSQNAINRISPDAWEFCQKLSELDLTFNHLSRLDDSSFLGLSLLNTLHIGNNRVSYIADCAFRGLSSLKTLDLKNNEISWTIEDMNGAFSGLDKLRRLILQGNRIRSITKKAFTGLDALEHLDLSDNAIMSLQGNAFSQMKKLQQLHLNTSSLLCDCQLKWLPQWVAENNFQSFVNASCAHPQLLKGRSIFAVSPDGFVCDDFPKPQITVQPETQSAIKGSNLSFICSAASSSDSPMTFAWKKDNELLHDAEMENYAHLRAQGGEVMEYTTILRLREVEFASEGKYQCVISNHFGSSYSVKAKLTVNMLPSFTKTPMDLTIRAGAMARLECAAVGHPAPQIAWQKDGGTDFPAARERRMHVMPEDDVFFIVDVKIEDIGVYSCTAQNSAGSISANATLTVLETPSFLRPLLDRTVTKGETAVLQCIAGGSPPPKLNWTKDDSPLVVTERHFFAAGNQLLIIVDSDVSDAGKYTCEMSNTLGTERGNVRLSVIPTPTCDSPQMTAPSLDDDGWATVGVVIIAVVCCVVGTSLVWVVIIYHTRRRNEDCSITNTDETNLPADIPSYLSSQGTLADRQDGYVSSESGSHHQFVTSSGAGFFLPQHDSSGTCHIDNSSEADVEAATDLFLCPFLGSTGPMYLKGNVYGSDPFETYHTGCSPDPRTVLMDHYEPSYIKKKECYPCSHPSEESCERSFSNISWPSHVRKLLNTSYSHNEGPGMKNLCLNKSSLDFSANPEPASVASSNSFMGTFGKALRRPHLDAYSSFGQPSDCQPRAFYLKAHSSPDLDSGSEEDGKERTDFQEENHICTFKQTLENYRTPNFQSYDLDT
Experiment: co-IP; lysates of HEK293T co-transfected with pLVX-FLAG-LRIG3 and pcDNA3.1-His-NETO2 (full length or deletion mutants); precipitation with the FLAG-specific antibody and protein A/G, 4 °C, 12 h; normal mouse IgG or empty vector as control

B1: His-NETO2-FL (protein, UniProt Q8BNJ6 23-525)
chain: IAVAQKTQDGQNIGIKHIPATQCGIWVRTSNGGHFASPNYPDSYPPNKECIYILEAAPRQRIELTFDERYYIEPSFECRFDHLEIRDGPFGFSPLIDRYCGMKSPALIRSTGRFMWIKFSSDEELEGLGFRAKYSFIPDPDFTYLGGILNPIPDCQFELSGADGIVRSSQVEQEEKTKPGQAVDCIWTIKATPKAKIYLRFLDYQMEHSNECKRNFVAVYDGSSAIENLKAKFCSTVANDVMLKTGVGVIRMWADEGSRLSRFRMLFTSFVEPPCTSSTFFCHSNMCINNSLVCNGVQNCAYPWDENHCKEKKKAGLFEQITKTHGTIIGITSGIVLVLLIISILVQVKQPRKKVMACKTAFNKTGFQEVFDPPHYELFSLREKEISADLADLSEELDNYQKLRRSSTASRCIHDHHCGSQASSVKQSRTNLSSMELPFRNDFAQPQPMKTFNSTFKKSSYTFKQAHECPEQALEDRVMEEIPCEIYVRGRDDSAQASISIDF
binding: binds
